Among the data in publication PMC3798277 are binding values, retold here.

No constants are given. Whether binding was seen depends on the method and setting. Binding seen in cells or lysates may run through a third protein.

This experiment has as its target CArG box binding factor A (CBF-A) p42 isoform (mouse (endogenous in testis)). The experiment can be described thus: co-IP; cytoplasmic fraction of mouse testis lysate (adult; also 30 dpp), untreated or treated with 100 µg/ml RNase A, incubated overnight with anti-CBF-A antibodies SAK22 (p37 and p42) or ICCI (p42 only) or control IgGs; Protein A-Sepharose; immunoblots. (A western blot detects proteins with antibodies after separation by electrophoresis.)

B1: MVH (Mouse Vasa Homolog/DDX4) (protein, UniProt Q61496 1-702)
chain: MGDEDWEAEILKPHVSSYVPVFEKDKYSSGANGDTFNRTSASSDIGESSKKENTSTTGGFGRGKGFGNRGFLNNKFEEGDSSGFWKESNNDCEDNQTRSRGFSKRGGCQDGNDSEASGPFRRGGRGSFRGCRGGFGLGRPNSESDQDQGTQRGGGLFGSRKPAASDSGNGDTYQSRSGSGRGGYKGLNEEVVTGSGKNSWKSETEGGESSDSQGPKVTYIPPPPPEDEDSIFAHYQTGINFDKYDTILVEVSGHDAPPAILTFEEANLCQTLNNNIAKAGYTKLTPVQKYSIPIVLAGRDLMACAQTGSGKTAAFLLPILAHMMRDGITASRFKELQEPECIIVAPTRELINQIYLEARKFSFGTCVRAVVIYGGTQFGHSVRQIVQGCNILCATPGRLMDIIGKEKIGLKQVKYLVLDEADRMLDMGFGPEMKKLISCPGMPSKEQRQTLLFSATFPEEIQRLAGDFLKSSYLFVAVGQVGGACRDVQQTILQVGQYSKREKLVEILRNIGDERTMVFVETKKKADFIATFLCQEKISTTSIHGDREQREREQALGDFRCGKCPVLVATSVAARGLDIENVQHVINFDLPSTIDEYVHRIGRTGRCGNTGRAISFFDTDSDNHLAQPLVKVLSDAQQDVPAWLEEIAFSTYVPPSFSSSTRGGAVFASVDTRKNYQGKHTLNTAGISSSQAPNPVDDESWD
Regarding B1, the binding entry was “no binding”.
